These are yes or no findings as the source states them, for the method shown. Binding calls can cover weak binding; strength is not graded here. Where a sequence is shown, tags or fusion partners need not be part of it.
These substances were tested against T1, FhuC, ATPase of the hydroxamate siderophore transporter, T18 fusion (pUT18C:fhuC) (S. aureus USA300 LAC) (UniProt Q9X665) (assay: two-hybrid; BACTH in E. coli BTH101: pKT25 (T25) permease + pUT18C (T18) FhuC; blue colonies on LB agar indicator plates with X-Gal and 0.5 mM IPTG after 1 day at 30°C).
T1 sequence: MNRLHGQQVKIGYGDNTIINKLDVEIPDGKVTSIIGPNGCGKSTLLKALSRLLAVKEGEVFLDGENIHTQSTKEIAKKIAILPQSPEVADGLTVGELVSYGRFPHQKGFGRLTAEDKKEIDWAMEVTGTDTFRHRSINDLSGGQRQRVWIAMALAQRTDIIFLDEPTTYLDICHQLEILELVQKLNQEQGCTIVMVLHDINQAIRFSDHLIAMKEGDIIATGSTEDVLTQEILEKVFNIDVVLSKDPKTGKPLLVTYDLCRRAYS

Q: How did the binding turn out when “IsdF A213F, T25 fusion (pKT25:isdF_A213F) (S. aureus USA300 LAC)” was run?
A: binds

Q: “IsdF A213F G217F, T25 fusion (pKT25:isdF_A+G_F) (S. aureus USA300 LAC)” was tested. Which binding did it give?
A: no binding

Q: “IsdF G217F, T25 fusion (pKT25:isdF_G217F) (S. aureus USA300 LAC)” was tested. Which binding did it give?
A: binds
